{"source": "the supplement of paper PMC5949888", "note": "± gives the standard deviation of the averaged measurements. Most values lie at the floor of the assay. Slopes are relative: functional sequences can read slightly below zero."}
{"test_system": "Saccharomyces cerevisiae PS128 hsf1 delta, HSF1(1-493) fusion", "test": "growth estimate (transactivation domain function in HSF1 fusion, heat-shock survival) (a.u. (slope of normalised read count over time)); higher = stronger growth at 37°C, i.e. more transactivation activity", "conditions": "library: random library", "protocol": "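Random 60-nt DNA library encoding peptides of up to 20 aa, fused to the C-terminus of yeast HSF1 residues 1-493 (C-terminal TAD deleted) and expressed from the native HSF1 promoter on a CEN plasmid in hsf1-deleted S. cerevisiae PS128. Cells were selected at 37°C on -trp 5-FOA plates for 0, 2, 4, 6 and 8 days and amplicons were sequenced. Growth estimate is the slope of a robust linear fit of total-sum-normalised read counts (normalised to the first time point) over time, using at least 2 replicates. Sequences are classed functional (TAD activity) above a threshold of -0.13, set from stop-codon control sequences.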"}
{"substance": "GTRKIRT", "growth estimate": "< -0.25"}
{"substance": "LEMGMVRAQTCIRGVP", "growth estimate": "< -0.25"}
{"substance": "TSRWLVT", "growth estimate": "< -0.25"}
{"substance": "FLQSGTL", "growth estimate": "< -0.25"}
{"substance": "MRKCILLGLSFWCHPSH", "growth estimate": "< -0.25"}
{"substance": "VMGSIVYCFTNARDSVYGWT", "growth estimate": "< -0.25"}
{"substance": "SVTREVDGHSAVGKAVVTSM", "growth estimate": "< -0.25"}
{"substance": "HRDFSSTQ", "growth estimate": "< -0.25"}
{"substance": "VRTVLMKKEKNWSSIRVRAS", "growth estimate": "< -0.25"}
{"substance": "GVSPSLFLTTYGEWVR", "growth estimate": "< -0.25"}
{"substance": "TLNKEHVAPHSLLRDNSGSG", "growth estimate": "< -0.25"}
{"substance": "GQPNPGDRLN", "growth estimate": "< -0.25"}
{"substance": "SNASSAVIRSIRLLNQRILR", "growth estimate": "< -0.25"}
{"substance": "CTNKHRRS", "growth estimate": "< -0.25"}
{"substance": "TRDRLITRDATSGFARRLLC", "growth estimate": "< -0.25"}
{"substance": "GKRIPGSFSEISSHRCSPDE", "growth estimate": "< -0.25"}
{"substance": "AREEGSRATLPYGGYCR", "growth estimate": "< -0.25"}
{"substance": "RVFVEHVYNLQGERT", "growth estimate": "< -0.25"}
{"substance": "GGNENCREAIPIPQRRDCAW", "growth estimate": "< -0.25"}
{"substance": "VGRGRT", "growth estimate": "< -0.25"}
{"substance": "DLFVGALIDGYEPVQDE", "growth estimate": -0.174}
{"substance": "IIRPTKFVFGSQDRLAVVGY", "growth estimate": "< -0.25"}
{"substance": "TKDRLAYRE", "growth estimate": "< -0.25"}
{"substance": "ASCEGASTGRVHRESLRDSP", "growth estimate": "< -0.25"}
{"substance": "DNSFC", "growth estimate": "< -0.25"}
{"substance": "AMYNPLCAITTESNSGRGPP", "growth estimate": "< -0.25"}
{"substance": "NREH", "growth estimate": "< -0.25"}
{"substance": "SRTETPGY", "growth estimate": "< -0.25"}
{"substance": "AYAGE", "growth estimate": "< -0.25"}
{"substance": "SGGDPKEFIAGLPYREPIAV", "growth estimate": "< -0.25"}
{"substance": "ALAGAVISLLDTND", "growth estimate": "< -0.25"}
{"substance": "LEML", "growth estimate": "< -0.25"}
{"substance": "LAFH", "growth estimate": "< -0.25"}
{"substance": "QRRDSAMHAFGI", "growth estimate": -0.168}
{"substance": "DTG", "growth estimate": "-0.247 ± 0.0037"}
{"substance": "RIFSLRVFPL", "growth estimate": "< -0.25"}
{"substance": "TRVTSILISVVPRQRVCHIG", "growth estimate": 0.121}
{"substance": "LSLDSGRIIPNDGL", "growth estimate": "< -0.25"}
{"substance": "CEVTYFGSYLPHGTKRFVRD", "growth estimate": "< -0.25"}
{"substance": "SATRSSDAMRVHRAFAI", "growth estimate": "< -0.25"}
{"substance": "WLLFLFIDVFFTGHGRHSEV", "growth estimate": "< -0.25"}
{"substance": "VAL", "growth estimate": "< -0.25"}
{"substance": "VASRVVLDRPDVSRVIGTVN", "growth estimate": "< -0.25"}
{"substance": "RRWGMIESGLLSAMYDLSAP", "growth estimate": "< -0.25"}
{"substance": "LLGTAFEAV", "growth estimate": "< -0.25"}
{"substance": "TNLGCDVYAHRMARMVDLRP", "growth estimate": "< -0.25"}
{"substance": "VQVLRPAKTVIFSASTRSPP", "growth estimate": "< -0.25"}
{"substance": "QSLQCRLERILVFLNHKVSC", "growth estimate": "< -0.25"}
{"substance": "RTQQVPDFGNSAARIHGVPA", "growth estimate": "< -0.25"}
{"substance": "EVGKCGVSVGWHNSAGHWRP", "growth estimate": "< -0.25"}
{"substance": "TVPWKPAKHYGTADSLHEAS", "growth estimate": -0.25}
{"substance": "TLRIWRLLGLSATWRRTTKG", "growth estimate": "< -0.25"}
{"substance": "LRE", "growth estimate": "< -0.25"}
{"substance": "SGNGVGGYTT", "growth estimate": "< -0.25"}
{"substance": "TDEQLWFLQLSCRLVIG", "growth estimate": "< -0.25"}
{"substance": "TRISLYRIRQTSLTWYPEGE", "growth estimate": "< -0.25"}
{"substance": "VTEF", "growth estimate": -0.243}
{"substance": "YAYLGADGLNSKTPV", "growth estimate": "< -0.25"}
{"substance": "IVAL", "growth estimate": "< -0.25"}
{"substance": "IWSVRGGVMRTSEADEAEGK", "growth estimate": "< -0.25"}
{"substance": "KVVFGVGVT", "growth estimate": "< -0.25"}
{"substance": "AYPHLDNAFVVDRAS", "growth estimate": "< -0.25"}
{"substance": "IGIFE", "growth estimate": "< -0.25"}
{"substance": "LGISILGRIAAMFEVPS", "growth estimate": "< -0.25"}
{"substance": "DWGHSPPSGDTENTFELASL", "growth estimate": "< -0.25"}
{"substance": "YRRGVVPNRSQFRSVYCLAR", "growth estimate": -0.241}
{"substance": "TSR", "growth estimate": 0.183}
{"substance": "STGTLGSYSIYGKSIIAPDR", "growth estimate": "< -0.25"}
{"substance": "QSCSFFMRA", "growth estimate": "< -0.25"}
{"substance": "PPTGHSRGNSWHFR", "growth estimate": "< -0.25"}
{"substance": "ALYR", "growth estimate": "< -0.25"}
{"substance": "VWV", "growth estimate": "< -0.25"}
{"substance": "FLG", "growth estimate": "< -0.25"}
{"substance": "NERERALYGEKETSILAGEV", "growth estimate": "< -0.25"}
{"substance": "IENDCL", "growth estimate": "< -0.25"}
{"substance": "SYKLLPSRYRQIEVRRTLP", "growth estimate": "< -0.25"}
{"substance": "PCGLCTAKARSKSPHVGGTR", "growth estimate": "< -0.25"}
{"substance": "IKVHQLKLRSKGRIRQLSAG", "growth estimate": "< -0.25"}
{"substance": "GYVAR", "growth estimate": "< -0.25"}
{"substance": "RSGGFVPGIWFKKAR", "growth estimate": "< -0.25"}
{"substance": "RERAKGRVKPGS", "growth estimate": -0.243}
{"substance": "NLFDAHCGVDLKFGIESAAL", "growth estimate": "< -0.25"}
{"substance": "CRTFSQSGYIITMYSEKKES", "growth estimate": "< -0.25"}
{"substance": "KVACVKPETWIHP", "growth estimate": "< -0.25"}
{"substance": "GRTYTKQTGWPRLSLVINHR", "growth estimate": "< -0.25"}
{"substance": "TAYYACSLCGRGIGVVRVGI", "growth estimate": "< -0.25"}
{"substance": "FDRLPFGFLLGARGYVGIGH", "growth estimate": "< -0.25"}
{"substance": "IWVGPYKQYTGD", "growth estimate": 0.0194}
{"substance": "WTGKRQTRYCLR", "growth estimate": "< -0.25"}
{"substance": "TVLNKDRDHW", "growth estimate": "< -0.25"}
{"substance": "IPSPYLGRLQLREF", "growth estimate": -0.166}
{"substance": "LHLQTVSDEVLRRRPRVTVY", "growth estimate": "< -0.25"}
{"substance": "LGGASLIERRIDKPLGMSSV", "growth estimate": "< -0.25"}
{"substance": "MFPSDAVKSDSFIFPCIAAR", "growth estimate": "< -0.25"}
{"substance": "ELGKDT", "growth estimate": -0.237}
{"substance": "IVAGFCS", "growth estimate": "< -0.25"}
{"substance": "GDERSSSRNP", "growth estimate": "< -0.25"}
{"substance": "PLHCSALATA", "growth estimate": "< -0.25"}
{"substance": "RRHVYRLG", "growth estimate": "< -0.25"}
{"substance": "EIAEQLT", "growth estimate": "< -0.25"}
{"substance": "RIGPCSKLSMIVRMTAIFSY", "growth estimate": "< -0.25"}
{"substance": "AEEYGMYLSAITRHVRQTWV", "growth estimate": "< -0.25"}
{"substance": "PCLHCERGYVNSS", "growth estimate": "< -0.25"}
{"substance": "AKIFREAEGSCSRLGTMVWT", "growth estimate": "< -0.25"}
{"substance": "FEHASDKKT", "growth estimate": "< -0.25"}
{"substance": "RTTYALQWTEPALVRAVGEP", "growth estimate": "< -0.25"}
{"substance": "LMFAALGCYVPSGVHSPPLR", "growth estimate": "< -0.253"}
{"substance": "DQADVGVVYIVP", "growth estimate": "< -0.25"}
{"substance": "RWTICHSRYSEPAQRVGLTA", "growth estimate": "< -0.25"}
{"substance": "DFDYKGGPRFLDGEYSARAA", "growth estimate": "< -0.25"}
{"substance": "NDGHANTPRSTPVMLCA", "growth estimate": "< -0.25"}
{"substance": "AEIGTEPLST", "growth estimate": "< -0.25"}
{"substance": "DAGSQSDSPVPIGGYRPRDT", "growth estimate": "< -0.25"}
{"substance": "GLSAVSSVPDYRR", "growth estimate": "< -0.25"}
{"substance": "TLVRHSIVIPGYSTADSDGR", "growth estimate": "< -0.25"}
{"substance": "SAGYGEYSRCGG", "growth estimate": "< -0.25"}
{"substance": "GCVPARSRKMLQVSWIEDGI", "growth estimate": "< -0.25"}
{"substance": "VHSGTSPVACRNASDNHTRA", "growth estimate": "< -0.25"}
{"substance": "SSCVVGARVLGSRS", "growth estimate": "< -0.25"}
{"substance": "RGTTSSVTYHRLCVWAVRTS", "growth estimate": "< -0.25"}
{"substance": "SGKRWTNLARGLQDGHIFRV", "growth estimate": "< -0.25"}
{"substance": "GRHDLVSCEV", "growth estimate": "< -0.25"}
{"substance": "WRTCDSYHRQPPRIPSCGQT", "growth estimate": -0.246}
{"substance": "LGRRCCSFGCPSTLRGGGRS", "growth estimate": "< -0.25"}
{"substance": "LTDRKLSSGRLRSTSPTADI", "growth estimate": "< -0.25"}
{"substance": "AGTAGAVIRCYMRVALSSTT", "growth estimate": -0.245}
{"substance": "FPWDICDYSRYQDLDAPVRL", "growth estimate": "< -0.25"}
{"substance": "SPTQERPEEPIVSSAVDDTK", "growth estimate": "< -0.25"}
{"substance": "VSGRWGEWGRSLHYSANLVR", "growth estimate": "< -0.25"}
{"substance": "SLAFPIRA", "growth estimate": "< -0.25"}
{"substance": "GNGLKRFNVGMPGDCSWIVT", "growth estimate": "< -0.25"}
{"substance": "MFI", "growth estimate": "< -0.25"}
{"substance": "AAC", "growth estimate": "< -0.25"}
{"substance": "MIITAVTSGAAPSGSSKRHR", "growth estimate": "< -0.25"}
{"substance": "EGLSRESTILRVQVQIVPWV", "growth estimate": "< -0.25"}
{"substance": "DRKLQRASLMKLSRKVPH", "growth estimate": "< -0.25"}
{"substance": "VEESRNVLLGLPGLEMSSCA", "growth estimate": "< -0.25"}
{"substance": "DANLNEEATTWLVACVCAYG", "growth estimate": "< -0.25"}
{"substance": "LVC", "growth estimate": "< -0.25"}
{"substance": "YTEAQPPTNLIPLSLRPGKP", "growth estimate": "< -0.25"}
{"substance": "SCKACLADDWPFVLTLSLRR", "growth estimate": "< -0.25"}
{"substance": "IYMVDCLIACSAPRSFAGSF", "growth estimate": "< -0.25"}
{"substance": "CYHGN", "growth estimate": "< -0.25"}
{"substance": "SDACVAICRLRRKMVPANGA", "growth estimate": -0.23}
{"substance": "EDPLSGQTRQGHFGRQGCCS", "growth estimate": "< -0.25"}
{"substance": "RDRTAPLDSIGVRPGGLTVA", "growth estimate": "< -0.25"}
{"substance": "GGCTRVKYGR", "growth estimate": "< -0.25"}
{"substance": "LVCRL", "growth estimate": "< -0.25"}
{"substance": "SCGGHWITETFRFRRTCSGG", "growth estimate": "< -0.25"}
{"substance": "VQRGIRFKRQSGKRGRGDRI", "growth estimate": "< -0.25"}
{"substance": "FVDSTGSTKFDSK", "growth estimate": "< -0.25"}
